Results as given in PubChem BioAssay AID624291 (National Center for Advancing Translational Sciences (NCATS), 2012).
Hit rate of the full screen: of about 350,000 compounds, about 220 (0.063%) were called active. Inconclusive results, whose numbers are uncertain, are shown with a selection of clear calls. Calls come from the whole dose curve; as a rule, active = well fitted activation curve with a large enough effect; inconclusive = small, poorly fitted or top-dose-only effect; inactive = no such curve, though single readings can be large or run the other way. Potencies of inconclusive entries are doubtful fits and often do not repeat.

assay: qHTS for Activators of Integrin-Mediated Alleviation for Muscular Dystrophy; conditions: alpha7betagal myoblasts, beta-gal FDG fluorescence, 48 h; activation: at 38.3 µM (top of the series); note: nearly all actives have a fitted effect of over 60% in size;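 for activation: 100% = response of the positive control SU9516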
Outline: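 alpha7betagal+/- myoblasts (passage 13, 250/well) treated 48 h at 37C with compounds at 1:260 dilution of DMSO stock. Lysed, then beta-galactosidase activity read as FDG fluorescence (ex 480/em 540) after 30 min, with pre-read for autofluorescence.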
Potency is the fitted concentration of half-maximal effect.

| SMILES | Potency | activation |
| --- | --- | --- |
| Cc1ccc(C)c(NC(=O)COC(=O)c2cc3ccccc3oc2=O)c1 | inconclusive: 3.16 µM [activator, single point] | – |
| Cc1ccc(NC(=O)C(=O)Nc2ccc(C)cn2)nc1 | – | inactive: 17.1% |
| CC[N+](CC)(CC=C(C)C)CC(=O)OC | inconclusive: 5.01 µM [activator, single point] | – |
| COc1ccc(CCN2CCCC(CN(C)C(=O)c3cc(C)oc3C)C2)cc1 (stereo not given) | – | inactive: 4.34% |
| O=C(NCCc1ccccc1)c1cnc(Cl)c(Cl)c1 | – | inactive: 8.3% |
| CCN(CC(=O)Nc1c(F)cccc1F)C(=O)c1cccc(S(=O)(=O)N2CCCCCC2)c1 | inconclusive: 5.01 µM [activator, single point] | – |
| O=C(N/N=C/c1ccc2cccnc2c1)c1ccco1 | inconclusive: 28.2 µM [activator, single point] | – |
| CC(NC(=O)C(=O)N/N=C\c1ccc([N+](=O)[O-])cc1)c1ccccc1 (stereo not given) | inconclusive: 5.62 µM [activator, full curve, poor fit] | – |
| Cc1cc(NC(=O)CSc2nc3c(C)c(C)ccc3cc2C)no1 | inconclusive: 31.6 µM [activator, single point] | – |
| CCOc1ccc(C(=O)O/N=C(\N)c2ccccn2)cc1 | – | inactive: 13.2% |
| COc1cc(/C=C(\C#N)C(=O)Nc2cccc(C(=O)O)c2)ccc1OCc1ccc(F)cc1 | – | inactive: 13.8% |
| O=C(Nc1ccc(O)cc1)c1cccc(Oc2ccc([N+](=O)[O-])cc2)c1 | inconclusive: 5.01 µM [activator, single point] | – |
| CC(=O)c1cccc(NC(=O)N2CCCC2C(=O)NCc2ccc3c(c2)OCO3)c1 (stereo not given) | inconclusive: 28.2 µM [activator, single point] | – |
| CCC(=O)NC(=S)Nc1ccc(N2CCOCC2)cc1 | inconclusive: 5.01 µM [activator, single point] | – |
| O=C(CN1CCCc2ccccc21)NCCc1ccc(F)cc1 | inconclusive: 5.01 µM [activator, single point] | – |
| CCn1cc(/C=N/NS(=O)(=O)c2ccc(C)cc2)c(C)n1 | inconclusive: 10 µM [activator, partial curve, poor fit] | – |
| COc1ccc(C(=O)NC(C)c2ccc(-n3ccnc3)cc2)c(OC)c1 (stereo not given) | inconclusive: 2.82 µM [activator, partial curve, poor fit] | – |
| c1cc2ccc3ccc(CN4CCOCC4)c4ccc(c1)c2c34 | – | inactive: -4.25% |
| Cc1onc(-c2ccccc2)c1C(=O)Nc1ccc2c(C)cc(=O)oc2c1 | – | inactive: 0.917% |
| COc1cccc(/C=N/NC(=S)NC2CC3CC2C2C=CCC32)c1O (stereo not given) | – | inactive: -60.4% |
| O=c1[nH]ncc(N/N=C/c2ccccc2)c1Cl | inconclusive: 5.62 µM [activator, partial curve] | – |
| Fc1cc(F)c(NC(=S)N2CCOCC2)c(F)c1 | inconclusive: 3.16 µM [activator, full curve, poor fit] | – |
| COc1ccc(OCc2nnc(SCC(=O)N3CCCC3)o2)cc1 | inconclusive: 20 µM [activator, single point] | – |
| O=C(c1cc(COc2ccc(F)cc2Cl)on1)N1CCSCC1 | inconclusive: 10 µM [activator, partial curve, poor fit] | – |
| O=c1c2ccccc2oc2nc(-c3ccco3)n(Cc3ccccc3)c(=O)c12 | inconclusive: 28.2 µM [activator, single point] | – |

| SMILES | Potency | activation |
| --- | --- | --- |
| C=CCn1c(-c2c[nH]c3ccccc23)n[nH]c1=S | – | inactive: -2.59% |
| COc1ccc2oc(=Nc3ccc(C(=O)O)cc3)c(C(=O)NCc3ccco3)cc2c1 | inconclusive: 1.41 µM [activator, partial curve, poor fit] | – |
| O=C(c1cnccn1)N1CCc2ccccc2C1 | – | inactive: 10.7% |
| Cc1ccc(-n2cc(CNCCN3CCOC3=O)c(-c3ccc(F)cc3)n2)cc1 | inconclusive: 28.2 µM [activator, single point] | – |
| CCOc1ccc(N2C(=O)/C(=C/c3cc(OC)c(OC)c(OC)c3)N(CC(=O)OC)C2=S)cc1 | – | inactive: -46.3% |
| CCOCCCNC(=O)C1CCN(S(=O)(=O)N2CCCC2)CC1 | inconclusive: 31.6 µM [activator, single point] | – |
| CCOC(=O)C1Nc2ccc(C)cc2C2C=CCC12 (stereo not given) | – | inactive: 24.5% |
| C=CCNC(=S)Nc1nc2c(cc1C(=O)OCC)CCCC2 | – | inactive: -21.4% |
| Nc1ccccc1C(=O)Nc1cccc(C(=O)O)c1 | – | inactive: 22.8% |
| COc1ccc(C2CC(c3ccc4ccccc4c3)=NN2C(=O)CN2C(=O)CCC2=O)cc1 (stereo not given) | inconclusive: 10 µM [activator, partial curve, poor fit] | – |
| O=C(NC(=S)Nc1ccc2oc(-c3cccnc3)nc2c1)c1cccc(Cl)c1 | – | inactive: -1.54% |
| O=C(Nc1ccc2c(c1)OCCO2)c1cccc(Cl)c1Cl | inconclusive: 28.2 µM [activator, single point] | – |
| COC(=O)CCC(=O)Nc1ccc(S(=O)(=O)Nc2cc(OC)nc(OC)n2)cc1 | inconclusive: 5.01 µM [activator, single point] | – |
| Cc1ccc(S(=O)(=O)/N=C(\N)Nc2nc(C)c3ccc(C)cc3n2)cc1 | – | inactive: 7.16% |
| O=Cc1cn(CCC(=O)O)nc1-c1cc2ccccc2o1 | inconclusive: 15.8 µM [activator, single point] | – |
| COCCOC(=O)C1=C(C)NC(=O)NC1c1ccc(-c2cc(Cl)ccc2Cl)o1 (stereo not given) | – | inactive: 3.29% |
| COc1cc([N+](=O)[O-])cc2sc(NC(C)=O)nc12 | – | inactive: -2.43% |
| N#C/C(=C/c1ccc(N2CCOCC2)o1)c1ccc(Cl)cc1 | – | inactive: -73.4% |
| C=CCNc1nnc(SCC(=O)Nc2ccccc2OC)c2ccccc12 | inconclusive: 5.01 µM [activator, single point] | – |
| Cc1ccc(CSc2ncnc3ccccc23)cc1 | inconclusive: 4.47 µM [activator, single point] | – |
| Cc1ccccc1CN1C(=O)c2ccccc2S1(=O)=O | – | inactive: -47.8% |
| Cc1ccc2nc(CCl)[n+]([O-])c(-c3ccccc3)c2c1 | inconclusive: 0.501 µM [activator, full curve, poor fit] | – |
| CCCNC(=O)c1ccc2snnc2c1 | – | inactive: 3.51% |
| COCC1CCN(C(=O)C2CCC(=O)N(CCc3ccc(Cl)cc3)C2)CC1 (stereo not given) | inconclusive: 0.501 µM [activator, full curve, poor fit] | – |
| Cc1ccc(NC(=O)NNC(=O)c2ccccc2)cc1 | inconclusive: 5.01 µM [activator, single point] | – |

Rewritten tab-delimited: four of the compounds above
SMILES	Potency	activation
O=C(NC(=S)Nc1ccc2oc(-c3cccnc3)nc2c1)c1cccc(Cl)c1	–	inactive: -1.54%
Cc1ccc(S(=O)(=O)/N=C(\N)Nc2nc(C)c3ccc(C)cc3n2)cc1	–	inactive: 7.16%
Cc1ccc2nc(CCl)[n+]([O-])c(-c3ccccc3)c2c1	inconclusive: 0.501 µM [activator, full curve, poor fit]	–
COCC1CCN(C(=O)C2CCC(=O)N(CCc3ccc(Cl)cc3)C2)CC1 (stereo not given)	inconclusive: 0.501 µM [activator, full curve, poor fit]	–

Later entries

| SMILES | Potency | activation |
| --- | --- | --- |
| COC(=O)CNC(=O)CSc1nc2sccc2c(=O)n1-c1ccccc1 | inconclusive: 12.6 µM [activator, single point] | – |
| CCc1nn2c(=O)cc(COC(=O)c3cc(Cl)c(OC)c(OC)c3)nc2s1 | – | inactive: -32.9% |
| COC(=O)CN1C(=O)COc2ccc(S(=O)(=O)N3CCCC3)cc21 | – | inactive: -19.9% |
| CC(=O)Nc1cccc(S(C)(=O)=O)c1 | – | inactive: 3.83% |
| O=C(COC(=O)CCc1c[nH]c2ccccc12)NC1CCS(=O)(=O)C1 (stereo not given) | inconclusive: 2.82 µM [activator, single point] | – |
| O=C(O)c1ccc(/C=C/c2nc3ccccc3c(=O)[nH]2)cc1 | inconclusive: 3.16 µM [activator, single point] | – |
| CC(=O)Nc1ccc(NC(=O)CC23CC4CC(CC(C4)C2)C3)cc1 | inconclusive: 5.01 µM [activator, single point] | – |
| CCCCNS(=O)(=O)c1ccc(OC)c(C)c1 | inconclusive: 28.2 µM [activator, single point] | – |
| Cc1nn(C)c(C)c1CNC(=O)Nc1cccc(Cl)c1 | – | inactive: -10.7% |
| COc1cc(NC(=O)CCCn2c(=S)[nH]c3ccccc3c2=O)cc(OC)c1OC | inconclusive: 4.47 µM [activator, single point] | – |
| O=S(=O)(c1ccc2c(c1)OCCO2)N1CCN(c2ncnc3sccc23)CC1 | – | inactive: -33.5% |
| O=C(Cc1ccc(Cl)c(Cl)c1)N1CCOCC1 | inconclusive: 5.01 µM [activator, single point] | – |
| CN(C(=O)COC(=O)C1CSC2(C)CCC(=O)N12)c1ccccc1 (stereo not given) | – | inactive: 30.8% |
| CC(C)(C)c1ccc(C(=O)NCC(=O)OCC(=O)Nc2ccccc2[N+](=O)[O-])cc1 | inconclusive: 0.794 µM [activator, full curve, poor fit] | – |
| C/C(=N\Oc1cccc(F)n1)c1ccc(Cl)cc1Cl | – | inactive: -7.91% |
| COc1ccc(NC(=O)c2ccc(Cl)c(S(=O)(=O)N3CCc4ccccc4C3)c2)cn1 | – | inactive: -11.8% [at 7.66 µM] |
| COc1ccc(S(=O)(=O)N2CCOCC2)cc1NS(=O)(=O)c1ccc(F)c(F)c1 | inconclusive: 3.16 µM [activator, single point] | – |
| CCOC(=O)c1nc(N)c(C(=O)OCC)[nH]1 | – | inactive: 12.1% |
| Cc1ccc(CN2CCSc3ccc(C(=O)NCC4CCCO4)cc32)cc1 (stereo not given) | inconclusive: 3.16 µM [activator, single point] | – |
| COc1ccc(-n2nc([N+](=O)[O-])c(=NCCc3cccc(C)c3)n2O)cc1 | – | inactive: 11.9% |
| CC(CCN1CCC(CN2C(=S)NCC2Cc2ccccc2)CC1)c1ccccc1 (stereo not given) | – | inactive: -8.9% |
| O=C(NCCN1CCN(c2ccccc2)CC1)C1CCN(S(=O)(=O)c2cccc3nonc23)CC1 | – | inactive: -14.7% |
| Cc1ccc(C)c(N2CCN(C(=O)CN(C)S(=O)(=O)c3cnc[nH]3)CC2)c1 | inconclusive: 5.01 µM [activator, single point] | – |
| Cc1ccc(S(=O)(=O)NC(C)C(=O)NC(C)c2cccs2)cc1 (stereo not given) | inconclusive: 10 µM [activator, partial curve] | – |
| CCc1c(C)nc2cc(-c3ccc(OC)c(OC)c3)nn2c1N1CCC(C)CC1 | inconclusive: 3.55 µM [activator, full curve, poor fit] | – |
